PubChem BioAssay AID1259264 | Sanger Institute, 2017

Assay: 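Kinases whose loss cuts CL40 colorectal cancer cell survival, alone or with drugs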 (primary screen)
Cell system: CL40 human colorectal cancer cells
Knock-down reagent: siRNA pool against human genes
Conditions: DMSO, or an anchor drug: BYL719 at 1 µM, cetuximab at 5 µg/ml, or trametinib at 10 nM
Read-out: 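Viability as a fraction of non-targeting pool control (replicates averaged), control-based robust z-score, plus averaged synergy for each drug: BYL719 1 µM, cetuximab 5 µg/ml, trametinib 10 nM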
Direction: robust z-score, siRNA alone: higher = more viable cells
Hit rule: 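a gene counts as essential when knock-down without drug gives a robust z-score below -3, meaning fewer cells; synergy scores play no part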
Meaning of the calls: active = essential (lowers viability alone); inactive = not essential
In all, the deposit lists 794 reagents; below is a part drawn at random. 15 of them (1.9%) count as active. 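Calls rest on knock-down alone at z-score below -3; synergy scores with the three drugs do not decide them.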 Not all columns of the deposit are shown. No sequences are given here. Not stated in the record: the amount of reagent, the time to read-out.

| gene knocked down | PubChem SID | robust z-score, siRNA alone | Outcome |
| --- | --- | --- | --- |
| ACVR2A | SID152150723 | 0.539 | inactive |
| YES1 | SID152156078 | 0.539 | inactive |
| CAMK2A | SID56478931 | 0.13 | inactive |
| PHKG1 | SID152147540 | -0.13 | inactive |
| CHD9 | SID152154196 | 0.539 | inactive |
| PI4KB | SID135621252 | 0.539 | inactive |
| FCSK | SID152149608 | -0.482 | inactive |
| PRKCI | SID152150879 | -0.317 | inactive |
| PDIK1L | SID152147170 | 0.539 | inactive |
| CRKL | SID152150429 | 0.539 | inactive |
| AURKC | SID152150186 | 0.539 | inactive |
| ADCK2 | SID56478993 | -1.62 | inactive |
| MAP3K11 | SID152156459 | 0.539 | inactive |
| PCBP1 | SID134316528 | 0.539 | inactive |
| MAP3K10 | SID56478692 | 0.539 | inactive |
| OXSR1 | SID152151868 | 0.539 | inactive |
| MARK2 | SID152148068 | -0.171 | inactive |
| SCYL1 | SID152146872 | 0.539 | inactive |
| TEX14 | SID152148327 | 0.539 | inactive |
| MAPKAPK3 | SID56478946 | 0.0986 | inactive |
| ITPKA | SID152154114 | 0.539 | inactive |
| TJP2 | SID135621862 | -0.766 | inactive |
| DCK | SID56479088 | -5.34 | active |
| DAPK2 | SID152156399 | -0.0218 | inactive |
| AXIN2 | SID135621652 | 0.41 | inactive |
| MAP3K15 | SID152147179 | 0.539 | inactive |
| CKM | SID56479085 | 0.433 | inactive |
| CREBBP | SID152156768 | 0.539 | inactive |
| PIP5K1A | SID56478868 | -0.821 | inactive |
| SPEG | SID56479185 | 0.539 | inactive |
| MERTK | SID135620626 | -1.69 | inactive |
| FGR | SID135620620 | -0.277 | inactive |
| FLT3 | SID152150278 | -0.619 | inactive |
| PTK2 | SID56478542 | 0.539 | inactive |
| FYN | SID135620621 | 0.087 | inactive |
| PIK3C3 | SID134310831 | 0.539 | inactive |
| MAPK10 | SID56478791 | 0.539 | inactive |
| PIK3R3 | SID56479284 | 0.539 | inactive |
| DYRK3 | SID152153037 | 0.539 | inactive |
| PGK1 | SID56479130 | 0.539 | inactive |
| STK33 | SID56479053 | 0.539 | inactive |
| PKN1 | SID56478783 | 0.539 | inactive |
| EPHB4 | SID152156322 | 0.539 | inactive |
| EEF2K | SID152154873 | 0.539 | inactive |
| HK2 | SID56479103 | 0.0166 | inactive |
| ALPK1 | SID152152286 | -0.56 | inactive |
| TAB1 | SID135620883 | 0.015 | inactive |
| LATS2 | SID152149461 | 0.514 | inactive |
| DLG2 | SID152155470 | 0.539 | inactive |
| MPP2 | SID152153278 | -0.166 | inactive |
| MAP3K20 | SID152152597 | 0.239 | inactive |
| TRIM27 | SID152155375 | 0.539 | inactive |
| AURKA | SID135620696 | -4.92 | active |
| MINK1 | SID152155809 | 0.539 | inactive |
| NR2F2 | SID134309873 | 0.334 | inactive |
| EIF2AK1 | SID56478942 | 0.539 | inactive |
| CDK4 | SID56478598 | 0.539 | inactive |
| BMPR1B | SID56478926 | 0.539 | inactive |
| ELP1 | SID56479224 | 0.539 | inactive |
| DGKK | SID135624472 | 0.539 | inactive |
| KCNH8 | SID134311656 | -0.383 | inactive |
| DGKA | SID152151940 | 0.356 | inactive |
| STK16 | SID152154415 | 0.539 | inactive |
